# Assay results as given in US5565462A, “Composition for topical treatment of psoriasis and atopic dermatitis comprising a xanthine derivative” (Teva Pharmaceutical Industries, Ltd., priority 1991, dated 1996).
# Values joined by “and” are separate entries in the source; they are usually repeats but may differ in a detail not shown here. Identical values can stand only once. The name of at least one read-out is uncertain.
# Tested on: human psoriatic fibroblasts
# Experiment: Inhibition of human psoriatic fibroblast proliferation
# Type: cell-based
# Settings: additional drug 10^-5 M with PTX 10^-3 M
# Description: PTX and PPF, alone as well as PTX in combination with other drugs were tested.
# Human psoriatic fibroblasts were obtained from skin biopsies of 5 individuals with plaque psoriasis. Cells in the 3-7th passages were used for the experiments. Human psoriatic fibroblasts (4×10^3 -6×10^3 cells) were added in 24-well plates and cultured in Dulbecco's Modified Eagle's Medium (DMEM) supplemented with 10% fetal calf serum, 2 mM L-glutamine, 100 u/ml penicillin, 100 μg/ml streptomycin (DMEM+) at 5% CO2 and 95% humidity at 37° C.
# After 3 days, medium was replaced with fresh DMEM+(control) or with medium containing various concentrations of compounds alone or in combination with pentoxifylline and incubation was continued for additional 3 days. Stock solutions (10^-1 -10^-2 M) of the compounds tested were made in ethanol. For these compounds special control (DMEM+ with 1% ethanol) was made. […]
# On the last day of experiments, the medium was aspirated and the cells were obtained by trypsinization. The number of cells in each well was counted by the use of an hemocytometer.
# The percentage of inhibition of fibroblast proliferation was calculated according to the formula: [formula] and the results are shown in Tables 3 and 4.
smiles,measurement,value
"CCCC(=O)O[C@]1(C(=O)CO)CC[C@H]2[C@@H]3CCC4=CC(=O)CC[C@]4(C)[C@H]3[C@@H](O)C[C@@]21C [hydrocortisone 17-butyrate, hydrocortisone-17-butyrate]",% Inhibition of Proliferation,41.9% and 51.2%
